The M2OR odorant receptor database
The entries are a selection whose mix differs from that of the whole data set. The calls were merged from several studies; some rest on single wells.

Sequences of proteins named here, by UniProt entry; tags and fusion partners are left off. A line that says so, or that is headed by a name, gives the form on record, which may keep a tag or linker.
UniProt Q7TS37, as listed by the source: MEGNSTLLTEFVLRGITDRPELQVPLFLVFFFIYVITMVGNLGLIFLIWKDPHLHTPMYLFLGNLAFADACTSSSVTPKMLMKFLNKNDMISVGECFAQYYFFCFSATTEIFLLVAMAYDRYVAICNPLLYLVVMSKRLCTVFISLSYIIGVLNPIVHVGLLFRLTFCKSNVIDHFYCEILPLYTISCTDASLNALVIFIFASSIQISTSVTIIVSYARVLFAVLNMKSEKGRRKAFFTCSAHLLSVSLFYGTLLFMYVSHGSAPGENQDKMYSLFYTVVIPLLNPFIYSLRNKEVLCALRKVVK
UniProt Q7TS40, as listed by the source: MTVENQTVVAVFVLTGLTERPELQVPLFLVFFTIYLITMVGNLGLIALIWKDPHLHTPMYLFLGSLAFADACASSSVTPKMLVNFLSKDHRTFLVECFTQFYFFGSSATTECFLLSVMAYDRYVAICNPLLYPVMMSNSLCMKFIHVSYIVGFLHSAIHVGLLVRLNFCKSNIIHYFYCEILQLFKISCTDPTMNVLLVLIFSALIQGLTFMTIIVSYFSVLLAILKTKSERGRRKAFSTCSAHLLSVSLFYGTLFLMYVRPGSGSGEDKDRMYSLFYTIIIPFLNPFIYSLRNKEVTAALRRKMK
UniProt Q8VF06, as listed by the source: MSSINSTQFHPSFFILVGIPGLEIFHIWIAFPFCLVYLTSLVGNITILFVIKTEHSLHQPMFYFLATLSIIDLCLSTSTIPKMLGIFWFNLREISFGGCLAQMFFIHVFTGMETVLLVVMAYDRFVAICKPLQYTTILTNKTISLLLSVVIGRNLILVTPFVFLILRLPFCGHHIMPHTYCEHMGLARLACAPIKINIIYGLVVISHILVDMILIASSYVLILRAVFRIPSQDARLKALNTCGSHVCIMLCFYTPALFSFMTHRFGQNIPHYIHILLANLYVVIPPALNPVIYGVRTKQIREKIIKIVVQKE
UniProt Q8VF73, as listed by the source: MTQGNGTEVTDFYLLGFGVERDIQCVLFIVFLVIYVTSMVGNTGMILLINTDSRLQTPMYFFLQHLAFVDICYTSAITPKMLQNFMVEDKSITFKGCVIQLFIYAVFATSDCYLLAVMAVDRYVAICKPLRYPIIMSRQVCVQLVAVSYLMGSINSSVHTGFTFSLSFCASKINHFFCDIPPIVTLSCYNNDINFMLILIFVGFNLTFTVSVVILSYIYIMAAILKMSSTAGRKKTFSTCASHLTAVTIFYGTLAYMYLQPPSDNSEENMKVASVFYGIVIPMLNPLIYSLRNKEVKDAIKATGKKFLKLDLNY
UniProt Q8VFB8, as listed by the source: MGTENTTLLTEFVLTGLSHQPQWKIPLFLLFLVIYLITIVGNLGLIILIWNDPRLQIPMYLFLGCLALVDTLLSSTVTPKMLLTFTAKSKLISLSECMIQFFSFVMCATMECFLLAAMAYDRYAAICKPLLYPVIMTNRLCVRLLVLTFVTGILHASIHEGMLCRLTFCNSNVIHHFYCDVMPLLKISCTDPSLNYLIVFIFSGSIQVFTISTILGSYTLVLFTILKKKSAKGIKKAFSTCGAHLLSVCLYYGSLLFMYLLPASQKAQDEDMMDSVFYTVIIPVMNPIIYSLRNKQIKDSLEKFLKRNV
UniProt Q8VFQ6, as listed by the source: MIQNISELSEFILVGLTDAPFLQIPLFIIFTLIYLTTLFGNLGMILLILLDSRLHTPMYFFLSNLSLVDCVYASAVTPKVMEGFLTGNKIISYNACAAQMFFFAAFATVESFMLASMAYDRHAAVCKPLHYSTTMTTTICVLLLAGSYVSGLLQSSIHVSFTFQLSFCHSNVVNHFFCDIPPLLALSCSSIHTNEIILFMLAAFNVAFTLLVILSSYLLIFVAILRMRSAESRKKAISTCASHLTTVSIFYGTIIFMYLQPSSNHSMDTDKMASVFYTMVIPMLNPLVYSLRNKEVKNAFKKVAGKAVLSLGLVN
UniProt Q8VG26, as listed by the source: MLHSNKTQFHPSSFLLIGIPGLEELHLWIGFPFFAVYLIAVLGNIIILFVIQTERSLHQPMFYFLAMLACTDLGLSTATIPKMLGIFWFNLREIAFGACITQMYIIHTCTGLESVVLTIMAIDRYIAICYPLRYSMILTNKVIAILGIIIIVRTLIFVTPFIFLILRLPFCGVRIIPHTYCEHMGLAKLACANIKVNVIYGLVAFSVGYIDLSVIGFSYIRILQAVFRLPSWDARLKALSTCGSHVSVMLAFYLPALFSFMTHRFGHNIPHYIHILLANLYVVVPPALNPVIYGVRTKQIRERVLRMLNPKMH

Tests used:
Conditions in all cases: stereoisomer not certain
[1] = biological target: UniProt Q7TS37
In short: (§1)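 Each entry records the cell line, G-protein, co-transfected protein and tags used. Methods varied with the source, often transient luciferase assays in mammalian cell lines. A receptor–molecule pair is called responsive (active) if the original authors judged its signal statistically different from baseline and non-responsive (inactive) otherwise.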

[2] = biological target: UniProt Q7TS40
In short: as §1

[3] = biological target: T1, UniProt Q8VEU7
T1 sequence (whole entry): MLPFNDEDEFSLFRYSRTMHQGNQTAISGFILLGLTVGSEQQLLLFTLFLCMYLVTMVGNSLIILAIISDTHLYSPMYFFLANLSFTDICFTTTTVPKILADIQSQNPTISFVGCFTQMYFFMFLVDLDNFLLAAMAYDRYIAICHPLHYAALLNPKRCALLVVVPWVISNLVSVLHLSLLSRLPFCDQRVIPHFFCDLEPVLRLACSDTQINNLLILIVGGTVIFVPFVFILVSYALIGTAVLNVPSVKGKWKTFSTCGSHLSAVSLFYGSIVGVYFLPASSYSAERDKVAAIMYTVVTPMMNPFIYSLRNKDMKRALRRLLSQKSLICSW
In short: as §1

[4] = biological target: T2, UniProt Q8VF05
T2 sequence (whole entry): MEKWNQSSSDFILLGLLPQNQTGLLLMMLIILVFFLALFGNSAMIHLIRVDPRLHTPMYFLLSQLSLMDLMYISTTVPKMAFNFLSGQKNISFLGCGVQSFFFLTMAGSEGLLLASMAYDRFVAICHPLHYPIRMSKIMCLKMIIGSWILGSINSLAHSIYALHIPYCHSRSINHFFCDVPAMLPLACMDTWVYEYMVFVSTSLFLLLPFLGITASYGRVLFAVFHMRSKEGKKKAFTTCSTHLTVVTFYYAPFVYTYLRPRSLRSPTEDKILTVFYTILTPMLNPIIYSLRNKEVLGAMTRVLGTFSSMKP
In short: as §1

[5] = biological target: UniProt Q8VF06
In short: as §1

[6] = biological target: T3, UniProt Q8VF24
T3 sequence (whole entry): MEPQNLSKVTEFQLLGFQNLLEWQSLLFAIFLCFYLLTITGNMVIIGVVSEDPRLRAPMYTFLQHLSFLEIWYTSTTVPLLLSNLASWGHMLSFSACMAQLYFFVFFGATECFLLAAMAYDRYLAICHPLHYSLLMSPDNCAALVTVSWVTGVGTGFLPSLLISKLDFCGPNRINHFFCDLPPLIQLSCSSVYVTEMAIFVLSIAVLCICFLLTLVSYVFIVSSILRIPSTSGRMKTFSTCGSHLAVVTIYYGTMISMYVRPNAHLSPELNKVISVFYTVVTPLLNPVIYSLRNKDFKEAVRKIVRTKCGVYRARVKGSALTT
In short: as §1

[7] = biological target: T4, UniProt Q8VF43
T4 sequence (whole entry): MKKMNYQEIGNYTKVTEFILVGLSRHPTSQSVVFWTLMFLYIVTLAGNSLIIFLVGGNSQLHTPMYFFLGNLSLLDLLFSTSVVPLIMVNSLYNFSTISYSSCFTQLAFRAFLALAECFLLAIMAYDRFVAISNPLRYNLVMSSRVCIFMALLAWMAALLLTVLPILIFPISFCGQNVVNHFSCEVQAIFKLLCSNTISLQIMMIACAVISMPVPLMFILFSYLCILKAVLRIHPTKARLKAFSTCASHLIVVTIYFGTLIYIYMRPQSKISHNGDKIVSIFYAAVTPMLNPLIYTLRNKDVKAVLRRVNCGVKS
In short: as §1

[8] = biological target: T5, UniProt Q8VF44
T5 sequence (whole entry): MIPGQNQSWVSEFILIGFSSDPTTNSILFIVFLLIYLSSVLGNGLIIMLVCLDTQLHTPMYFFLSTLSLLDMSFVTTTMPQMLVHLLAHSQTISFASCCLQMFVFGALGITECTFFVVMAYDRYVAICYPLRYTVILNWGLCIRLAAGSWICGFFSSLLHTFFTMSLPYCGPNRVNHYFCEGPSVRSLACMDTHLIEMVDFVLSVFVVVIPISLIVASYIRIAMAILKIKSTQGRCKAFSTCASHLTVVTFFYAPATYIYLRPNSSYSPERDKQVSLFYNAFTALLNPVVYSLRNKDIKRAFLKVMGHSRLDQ
In short: as §1

[9] = biological target: T6, UniProt Q8VF52
T6 sequence (whole entry): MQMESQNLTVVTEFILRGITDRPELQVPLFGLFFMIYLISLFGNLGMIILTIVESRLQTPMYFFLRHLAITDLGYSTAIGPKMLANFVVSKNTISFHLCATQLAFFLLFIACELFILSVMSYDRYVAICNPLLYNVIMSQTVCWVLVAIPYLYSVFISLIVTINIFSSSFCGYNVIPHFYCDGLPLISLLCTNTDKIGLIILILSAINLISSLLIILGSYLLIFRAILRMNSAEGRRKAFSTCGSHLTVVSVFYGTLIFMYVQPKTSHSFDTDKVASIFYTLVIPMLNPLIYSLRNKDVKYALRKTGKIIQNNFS
In short: as §1

[10] = biological target: UniProt Q8VF73
In short: as §1

[11] = biological target: UniProt Q8VFB8
In short: as §1

[12] = biological target: T7, UniProt Q8VFG6
T7 sequence (whole entry): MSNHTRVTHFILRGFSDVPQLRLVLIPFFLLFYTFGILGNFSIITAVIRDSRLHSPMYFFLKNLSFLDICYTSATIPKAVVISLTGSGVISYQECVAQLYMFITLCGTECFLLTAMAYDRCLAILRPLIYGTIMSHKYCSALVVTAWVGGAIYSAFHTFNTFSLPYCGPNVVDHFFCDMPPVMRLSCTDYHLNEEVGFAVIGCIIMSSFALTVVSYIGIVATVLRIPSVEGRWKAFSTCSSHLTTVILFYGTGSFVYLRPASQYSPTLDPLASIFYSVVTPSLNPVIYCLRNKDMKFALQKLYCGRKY
In short: as §1

[13] = biological target: T8, UniProt Q8VFM8
T8 sequence (whole entry): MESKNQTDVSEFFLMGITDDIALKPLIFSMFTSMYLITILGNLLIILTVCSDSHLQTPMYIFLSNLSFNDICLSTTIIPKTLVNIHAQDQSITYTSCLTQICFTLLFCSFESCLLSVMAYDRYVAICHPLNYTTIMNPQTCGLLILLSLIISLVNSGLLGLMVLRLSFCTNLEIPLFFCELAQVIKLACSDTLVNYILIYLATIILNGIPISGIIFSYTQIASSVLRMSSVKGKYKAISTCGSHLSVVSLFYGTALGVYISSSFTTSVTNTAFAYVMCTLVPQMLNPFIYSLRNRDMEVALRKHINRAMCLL
In short: as §1

[14] = biological target: T9, UniProt Q8VFP5
T9 sequence (whole entry): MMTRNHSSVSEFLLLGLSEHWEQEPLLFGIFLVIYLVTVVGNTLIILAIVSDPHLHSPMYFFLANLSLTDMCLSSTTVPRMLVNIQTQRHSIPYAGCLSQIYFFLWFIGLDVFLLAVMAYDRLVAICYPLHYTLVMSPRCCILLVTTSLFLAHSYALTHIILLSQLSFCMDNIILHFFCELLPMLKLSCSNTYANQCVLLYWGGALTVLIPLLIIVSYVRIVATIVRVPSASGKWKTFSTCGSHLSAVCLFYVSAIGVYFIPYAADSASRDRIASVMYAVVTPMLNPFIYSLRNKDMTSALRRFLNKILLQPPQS
In short: as §1

[15] = biological target: UniProt Q8VFQ6
In short: as §1

[16] = biological target: T10, UniProt Q8VFZ6
T10 sequence (whole entry): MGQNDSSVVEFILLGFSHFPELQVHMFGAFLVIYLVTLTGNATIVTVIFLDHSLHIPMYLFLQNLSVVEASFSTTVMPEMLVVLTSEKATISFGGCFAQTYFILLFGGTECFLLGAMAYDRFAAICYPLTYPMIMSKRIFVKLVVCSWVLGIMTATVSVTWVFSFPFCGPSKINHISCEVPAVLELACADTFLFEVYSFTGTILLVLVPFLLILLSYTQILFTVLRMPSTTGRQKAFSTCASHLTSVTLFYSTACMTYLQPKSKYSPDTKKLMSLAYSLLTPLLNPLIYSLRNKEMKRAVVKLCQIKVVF
In short: as §1

[17] = biological target: T11, UniProt Q8VG01
T11 sequence (whole entry): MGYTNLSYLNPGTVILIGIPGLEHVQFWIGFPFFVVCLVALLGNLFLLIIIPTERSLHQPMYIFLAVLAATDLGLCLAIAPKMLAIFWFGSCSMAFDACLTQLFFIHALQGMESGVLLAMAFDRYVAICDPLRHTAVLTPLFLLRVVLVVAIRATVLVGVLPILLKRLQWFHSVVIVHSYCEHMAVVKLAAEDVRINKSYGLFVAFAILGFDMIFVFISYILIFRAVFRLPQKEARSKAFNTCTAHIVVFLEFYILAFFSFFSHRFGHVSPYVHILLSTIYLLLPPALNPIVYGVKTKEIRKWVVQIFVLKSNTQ
In short: as §1

[18] = biological target: T12, UniProt Q8VG22
T12 sequence (whole entry): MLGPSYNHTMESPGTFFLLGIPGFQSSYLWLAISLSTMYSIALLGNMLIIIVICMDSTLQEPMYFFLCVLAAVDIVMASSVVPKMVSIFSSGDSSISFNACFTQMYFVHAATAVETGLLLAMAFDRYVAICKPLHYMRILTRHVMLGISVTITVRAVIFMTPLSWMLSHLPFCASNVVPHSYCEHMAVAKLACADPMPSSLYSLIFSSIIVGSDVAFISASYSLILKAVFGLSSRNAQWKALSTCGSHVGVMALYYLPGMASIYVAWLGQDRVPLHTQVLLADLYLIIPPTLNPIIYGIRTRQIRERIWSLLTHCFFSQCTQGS
In short: as §1

[19] = biological target: UniProt Q8VG26
In short: as §1

[20] = biological target: T13, UniProt Q8VG27
T13 sequence (whole entry): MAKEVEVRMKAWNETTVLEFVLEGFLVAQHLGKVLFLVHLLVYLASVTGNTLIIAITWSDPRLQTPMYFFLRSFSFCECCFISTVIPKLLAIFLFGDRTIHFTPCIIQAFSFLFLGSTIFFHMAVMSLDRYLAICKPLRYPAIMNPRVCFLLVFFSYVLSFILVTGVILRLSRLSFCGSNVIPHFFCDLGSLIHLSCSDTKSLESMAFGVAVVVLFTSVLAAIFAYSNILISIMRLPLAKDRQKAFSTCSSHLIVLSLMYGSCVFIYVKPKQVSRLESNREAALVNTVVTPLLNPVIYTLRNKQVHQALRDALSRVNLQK
In short: as §1

Measured: odorant receptor agonist call

C=C(C)C1CC=C(C)C(=O)C1 (stereo not drawn)
active: [1] | [2] | [4] | [9] | [15] | [18]
inactive: all other assays above

c1cnccn1
inactive: [7] | [9] | [13] | [14] | [17] | [20]

CC(=O)C(C)=O
inactive: [7] | [9] | [13] | [14] | [17] | [20]

CCCCCCCCCC=O
not listed: [1] | [2] | [5] | [10] | [11] | [15] | [19]
inactive: all other assays above

C=CCc1ccc(O)c(OC)c1
inactive: [5] | [7] | [9] | [13] | [14] | [17] | [19] | [20]

CCCCCC(=O)O
not listed: [1] | [2] | [10] | [11] | [15]
inactive: all other assays above
